Some entries share one result that the patent states for a list of compounds.
Test system: porcine whole blood
Assay: Whole blood ex vivo model of inflammation, E. coli-induced cytokine release in porcine blood
Assay type: cell-based
Conditions: 10 mg/ml and 50 mg/ml of either Ab ('respectively'); 1 3 105 cells/ml heat-inactivated E. coli
Description: The whole blood model has been described in detail previously (36). Fresh human venous or porcine arterial blood was drawn directly into tubes containing the anticoagulant lepirudin (Pharmion) at a final concentration of 50 mg/ml. In 1.8-ml Cryo Tube vials (Nunc, Roskilde, Denmark), the blood was preincubated with up to 20 mg/ml anti-human CD14 (r18D11 or 18D11), or 50 mg/ml anti-porcine CD14 (rMil2 or Mil2) at 37° C. for 10 min prior to an additional 2-h incubation in the presence of 100 ng/ml ultrapure LPS from Escherichia coli 0111:B4 (InvivoGen, San Diego, Calif.) for human blood or 1 3 105/ml heat-inactivated E. coli (strain LE392, ATCC33572) for porcine blood. As negative controls, PBS with MgCl2 and CaCl2 (Sigma-Aldrich) and isotype controls were used. Adverse effects were tested using nonactivated whole blood samples. After the addition of 10 mM (human) or 20 mM (porcine) EDTA, plasma was gained by 15 min centrifugation at 3220 3 g and 4° C. Levels of TNF, IL-6, and IL-1b in human plasma were determined using Bioplex technology (Bio-Rad Laboratories AB). Levels of TNF, IL-1b, and IL-8 in porcine plasma were determined using ELISA (Quantikine, R&D Systems, Minneapolis, Minn.). Platelet count was quantified by impedance using a CELL-DYN Sapphire hematology analyzer (Abbott Laboratories, Abbott Park, Ill.).

B1: rMil2: recombinant anti-porcine CD14 mouse/human chimeric IgG2/4 Ab; VL SEQ ID NO:3, VH SEQ ID NO:4 (antibody, V domains shown)
VH: MGWSCIILFLVATATGVHSQVRLQQPGAELVRPGASVKLSCKASGYTFTTYWMNWVKQRPEDGLEWIGRIDPYDSETHYNQNFKDKAILTVDKSSSTAYMQLSSLTYEDSAVYYCTRKEGRQWGAYFDYWGQGTTLTVSSA
VL: MGWSCIILFLVATATGVHSDIVMTQSQKFMSTSVGDRVSVTCKASQYVGTNVAWYQQKPGQSPKALIQSASYRCSGVPDRFTGSGSGTDFTLTISNVQSEDLADYFCQQYNTYVTFGGGTKLELKR
modifications: human IgG2/4 constant regions
- IL-1b plasma level reduction: at least 75%

B2: Mil2: mouse anti-porcine CD14 IgG2b clone Mil2 (Serotec), original murine clone (antibody, V domains shown)
VH: QVRLQQPGAELVRPGASVKLSCKASGYTFTTYWMNWVKQRPEDGLEWIGRIDPYDSETHYNQNFKDKAILTVDKSSSTAYMQLSSLTYEDSAVYYCTRKEGRQWGAYFDYWGQGTTLTVSSA
VL: DIVMTQSQKFMSTSVGDRVSVTCKASQYVGTNVAWYQQKPGQSPKALIQSASYRCSGVPDRFTGSGSGTDFTLTISNVQSEDLADYFCQQYNTYVTFGGGTKLELKR
- IL-1b plasma level reduction: at least 75%
